Taken from: PubChem BioAssay AID1224831 (NIAID, 2016)
Test: 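Confirming genome-wide hits on LPS-triggered TNF-alpha induction with independent siRNA sequences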 (follow-up of hits). Cells: human THP-1 B5 monocytic leukaemia cells carrying a TNF promoter luciferase reporter, made macrophage-like with PMA. Reagents: single siRNA against human genes, 50 nM. Duration: about 68 h of knock-down, then 4 h LPS. Treatment: LPS (Salmonella minnesota, TLR-grade) at 10 ng/ml for 4 h; PMA 5 ng/ml present during knock-down. Measurement: 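Firefly to renilla luciferase ratio of a TNF promoter reporter after 4 h LPS, scaled to plate median, turned into robust z-score, averaged over replicates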. Scale: TNF reporter z-score: higher = stronger LPS-induced TNF reporter signal; z-score, median over gene's siRNAs: higher = stronger TNF reporter signal across the gene's siRNAs. Hit rule: 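Two-sided call: reduced or raised TNF reporter signal counts as active once mean z reaches about -1 or below, or about 1.5 or above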. Calls: active = changed TNF reporter (either direction); inactive = little change.
The deposit covers about 3,500 reagents; this is an unselected part. 731 of all reagents (21%) were called active. 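Active means either lowered or raised reporter signal; the gene-median score did not drive the per-siRNA calls.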 The numbers tell different reagents against one gene apart.

no.	target	reagent	TNF reporter z-score, replicate mean	z-score, median over gene's siRNAs	call
1	KLK6	1	0.6	0.365	inactive
2	KLK6	2	-0.33	0.365	inactive
3	KLK6	3	-0.03	0.365	inactive
4	KLK6	4	0.45	0.365	inactive
5	KLK6	5	0.48	0.365	inactive
6	KLK6	6	0.28	0.365	inactive
7	TNIP1	1	0.4	0.28	inactive
8	TNIP1	2	0.91	0.28	inactive
9	TNIP1	3	0.16	0.28	inactive
10	TNIP1	4	-0.54	0.28	inactive
11	TNIP1	5	-1.52	0.28	active
12	TNIP1	6	0.45	0.28	inactive
13	TYMSOS	1	-1.04	-0.545	active
14	TYMSOS	2	-1.43	-0.545	active
15	TYMSOS	3	-0.01	-0.545	inactive
16	TYMSOS	4	-1.44	-0.545	active
17	TYMSOS	5	0.38	-0.545	inactive
18	TYMSOS	6	-0.05	-0.545	inactive
19	OFCC1	1	-0.84	-0.28	inactive
20	OFCC1	2	1.32	-0.28	inactive
21	OFCC1	3	-0.48	-0.28	inactive
22	OFCC1	4	0.01	-0.28	inactive
23	OFCC1	5	-0.58	-0.28	inactive
24	OFCC1	6	-0.08	-0.28	inactive
25	PHC3	1	-0.82	-0.12	inactive
26	PHC3	2	1.25	-0.12	inactive
27	PHC3	3	0.01	-0.12	inactive
28	PHC3	4	-0.25	-0.12	inactive
29	PHC3	5	-0.49	-0.12	inactive
30	PHC3	6	1.12	-0.12	inactive
31	MSL3	1	0.24	0.32	inactive
32	MSL3	2	0.75	0.32	inactive
33	MSL3	3	-1.03	0.32	active
34	MSL3	4	0.2	0.32	inactive
35	MSL3	5	0.4	0.32	inactive
36	MSL3	6	3.08	0.32	active
37	HR	1	0.27	-0.45	inactive
38	HR	2	-1.39	-0.45	active
39	HR	3	-0.99	-0.45	inactive
40	HR	4	1.25	-0.45	inactive
41	HR	5	-0.26	-0.45	inactive
42	HR	6	-0.64	-0.45	inactive
43	FBXO21	1	0.4	0.325	inactive
44	FBXO21	2	0.09	0.325	inactive
45	FBXO21	3	0.25	0.325	inactive
46	FBXO21	4	0.71	0.325	inactive
47	FBXO21	5	-0.02	0.325	inactive
48	FBXO21	6	2.22	0.325	active
49	PPP1R10	1	-0.31	-1.11	inactive
50	PPP1R10	2	-1.58	-1.11	active
51	PPP1R10	3	-1.05	-1.11	active
52	PPP1R10	4	-1.18	-1.11	active
53	PPP1R10	5	1.13	-1.11	inactive
54	PPP1R10	6	-1.31	-1.11	active
55	INTS6	1	1.55	1.68	active
56	INTS6	2	1.12	1.68	inactive
57	INTS6	3	2.64	1.68	active
58	INTS6	4	1.8	1.68	active
59	INTS6	5	1.9	1.68	active
60	INTS6	6	1.35	1.68	inactive
61	ART1	1	-0.98	-0.28	inactive
62	ART1	2	-0.25	-0.28	inactive
63	ART1	3	-0.78	-0.28	inactive
64	ART1	4	0.31	-0.28	inactive
65	ART1	5	-0.31	-0.28	inactive
66	ART1	6	0.71	-0.28	inactive
67	GHRH	1	-0.07	-0.235	inactive
68	GHRH	2	-0.02	-0.235	inactive
69	GHRH	3	-0.4	-0.235	inactive
70	GHRH	4	-0.79	-0.235	inactive
71	GHRH	5	-1.34	-0.235	active
72	GHRH	6	0.23	-0.235	inactive
73	KRAS	1	0.77	0.755	inactive
74	KRAS	2	4.25	0.755	active
75	KRAS	3	0.3	0.755	inactive
76	KRAS	4	0.74	0.755	inactive
77	KRAS	5	-0.63	0.755	inactive
78	KRAS	6	1.38	0.755	inactive
79	USPL1	1	-1.34	-1.17	active
80	USPL1	2	-0.99	-1.17	inactive
81	USPL1	3	-1.39	-1.17	active
82	USPL1	4	-0.67	-1.17	inactive
83	USPL1	5	-1.38	-1.17	active
84	USPL1	6	-0.87	-1.17	inactive

Copied from the entries so far for reference:
no.	target	reagent	TNF reporter z-score, replicate mean	z-score, median over gene's siRNAs	call
31	MSL3	1	0.24	0.32	inactive
32	MSL3	2	0.75	0.32	inactive
33	MSL3	3	-1.03	0.32	active
34	MSL3	4	0.2	0.32	inactive
35	MSL3	5	0.4	0.32	inactive
36	MSL3	6	3.08	0.32	active
37	HR	1	0.27	-0.45	inactive
38	HR	2	-1.39	-0.45	active
39	HR	3	-0.99	-0.45	inactive
40	HR	4	1.25	-0.45	inactive
41	HR	5	-0.26	-0.45	inactive
42	HR	6	-0.64	-0.45	inactive
43	FBXO21	1	0.4	0.325	inactive
44	FBXO21	2	0.09	0.325	inactive
